Several values for one entry are separate records, joined by “and”; a condition that tells them apart may be missing. Equal entries are not always repeated. Entries after “also recorded” stand apart in the source; their conditions may differ. Not every detail of the peptide structures is certain; ends, links or a residue may be inferred. Square brackets hold non-standard residues; d marks the D form. Peptide text beside a SMILES is read from it.
Experiments:
mu opioid receptor (MOR) = mu opioid receptor (MOR) (Rattus norvegicus, UniProt P33535); assay: binding selectivity, Ki ratio KOR/MOR; conditions: KOR = 1
[1] = target: DOR (delta opioid receptor); assay: binding selectivity, Ki ratio KOR/DOR; conditions: KOR = 1
kappa-opioid receptor = conditions: in vivo; cited from earlier work
KOR = KOR (Rattus norvegicus, UniProt P34975); assay: antagonist activity (adenylyl cyclase assay); type: cell-based
[2] = target: T1, kappa-opioid receptor (KOR) (Mus musculus, UniProt P33534); assay: 55° C. warm-water tail-withdrawal test, antagonism of U50,488 antinociception; type: in vivo, C57B1/6J mice
T1 construct: from tissue; host or cells: living C57B1/6J mice (central and peripheral KOR)

Sequences of proteins named here, by UniProt entry; tags and fusion partners are left off. A change or cut given only in a name is not applied to a line headed by its entry.
UniProt P33535, whole entry: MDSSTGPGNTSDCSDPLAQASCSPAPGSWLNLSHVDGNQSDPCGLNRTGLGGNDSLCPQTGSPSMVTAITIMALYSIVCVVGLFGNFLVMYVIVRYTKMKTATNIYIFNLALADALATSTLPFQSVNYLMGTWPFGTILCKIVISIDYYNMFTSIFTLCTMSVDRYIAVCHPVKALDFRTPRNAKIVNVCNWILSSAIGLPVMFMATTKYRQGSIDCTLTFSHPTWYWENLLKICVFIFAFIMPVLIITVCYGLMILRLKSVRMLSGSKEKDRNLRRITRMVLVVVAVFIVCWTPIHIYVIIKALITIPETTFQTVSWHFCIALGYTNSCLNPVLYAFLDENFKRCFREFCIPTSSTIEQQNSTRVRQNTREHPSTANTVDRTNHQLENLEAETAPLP
UniProt P34975: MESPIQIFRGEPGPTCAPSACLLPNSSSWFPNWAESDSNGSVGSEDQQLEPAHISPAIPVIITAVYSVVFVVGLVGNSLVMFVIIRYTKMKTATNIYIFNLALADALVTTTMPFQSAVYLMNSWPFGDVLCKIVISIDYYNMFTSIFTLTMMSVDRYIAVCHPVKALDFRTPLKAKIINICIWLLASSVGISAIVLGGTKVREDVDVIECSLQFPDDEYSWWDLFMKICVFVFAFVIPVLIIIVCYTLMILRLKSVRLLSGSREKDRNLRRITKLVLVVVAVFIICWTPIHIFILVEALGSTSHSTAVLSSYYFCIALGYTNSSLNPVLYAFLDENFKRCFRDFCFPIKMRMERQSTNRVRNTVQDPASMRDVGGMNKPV
UniProt P33534: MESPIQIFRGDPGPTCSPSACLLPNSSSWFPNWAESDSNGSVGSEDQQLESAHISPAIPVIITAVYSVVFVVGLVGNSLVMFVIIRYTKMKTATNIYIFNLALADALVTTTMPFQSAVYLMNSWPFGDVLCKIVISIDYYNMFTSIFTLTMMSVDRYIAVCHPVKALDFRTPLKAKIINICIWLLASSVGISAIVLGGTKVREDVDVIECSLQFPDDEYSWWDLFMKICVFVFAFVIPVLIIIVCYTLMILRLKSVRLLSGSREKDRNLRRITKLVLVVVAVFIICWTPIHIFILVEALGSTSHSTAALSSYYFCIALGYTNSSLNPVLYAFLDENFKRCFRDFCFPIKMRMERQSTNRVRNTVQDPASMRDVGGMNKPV
UniProt P42866, whole entry: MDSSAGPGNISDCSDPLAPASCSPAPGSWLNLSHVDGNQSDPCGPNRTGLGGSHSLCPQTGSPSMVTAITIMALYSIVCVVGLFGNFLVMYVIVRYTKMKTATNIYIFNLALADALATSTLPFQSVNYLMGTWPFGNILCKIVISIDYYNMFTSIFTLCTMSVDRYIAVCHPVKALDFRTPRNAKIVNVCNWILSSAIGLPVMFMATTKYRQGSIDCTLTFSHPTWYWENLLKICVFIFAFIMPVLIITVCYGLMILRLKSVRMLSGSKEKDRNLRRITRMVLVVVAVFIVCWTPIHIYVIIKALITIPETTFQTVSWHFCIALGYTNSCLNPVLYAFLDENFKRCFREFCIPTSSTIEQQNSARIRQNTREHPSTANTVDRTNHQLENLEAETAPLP
UniProt P32300, whole entry: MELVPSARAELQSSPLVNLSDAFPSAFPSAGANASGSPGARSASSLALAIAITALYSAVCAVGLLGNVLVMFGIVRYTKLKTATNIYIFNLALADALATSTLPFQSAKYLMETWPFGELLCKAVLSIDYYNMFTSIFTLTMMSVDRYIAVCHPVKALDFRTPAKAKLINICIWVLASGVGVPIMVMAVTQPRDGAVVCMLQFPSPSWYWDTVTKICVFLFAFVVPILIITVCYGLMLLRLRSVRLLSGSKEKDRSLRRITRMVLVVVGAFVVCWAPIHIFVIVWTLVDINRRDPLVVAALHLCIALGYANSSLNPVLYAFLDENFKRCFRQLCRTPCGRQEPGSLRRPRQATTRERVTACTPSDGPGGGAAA

[3] = 55° C. warm-water tail-withdrawal test, antinociceptive effect of the substance alone; design: species or system C57B1/6J mice; conditions: mouse, in vivo
[4] = stress-induced reinstatement of cocaine-conditioned place preference (forced swim stress); type: in vivo, C57B1/6J mice
[5] = cocaine-induced reinstatement of cocaine-conditioned place preference; type: in vivo, C57B1/6J mice; conditions: 3 mg/kg s.c. before an additional cocaine conditioning cycle
mu-opioid receptor = target: T2, mu-opioid receptor (Mus musculus, UniProt P42866); assay: tail-withdrawal test, effect on morphine antinociception (in vivo selectivity); design: species or system mice; conditions: 3 mg/kg s.c., 1 h pretreatment
T2 construct: from tissue; host or cells: living mice

delta-opioid receptor = target: T3, delta-opioid receptor (Mus musculus, UniProt P32300); assay: tail-withdrawal test, effect on SNC-80 antinociception (in vivo selectivity); design: species or system mice; conditions: 3 mg/kg s.c., 1 h pretreatment
T3 construct: from tissue; host or cells: living mice

Row | Compound | Ki ratio (KOR/MOR/DOR), MOR term (mu opioid receptor (MOR)) | Ki ratio (KOR/MOR/DOR), DOR term [1] | effect on stress-induced reinstatement of cocaine seeking (literature) (kappa-opioid receptor) | antagonist potency against KOR in vitro (KOR) | antagonism of antinociceptive effect of centrally administered U50,488 (40 nmol i.c.v.) ([2]; 3 mg/kg s.c., 1 h prior to testing) | potency as KOR antagonist relative to JDTic ([2]; following systemic administration) | antagonism of antinociceptive effect of U50,488 (10 mg/kg, i.p.) ([2]; i.c.v. pretreatment 0.3, 1 or 3 nmol, 1 h prior to testing) | antagonism of antinociceptive effect of U50,488 (10 mg/kg, i.p.) ([2]; s.c. pretreatment 1 or 3 mg/kg, 1 h prior to testing) | time of full recovery of U50,488 antinociception ([2]; single dose 3 mg/kg s.c.) | time of partial recovery of U50,488 antinociception ([2]; single dose 3 mg/kg s.c.) | antinociceptive effect of the substance alone [3] | tail-withdrawal latency after the substance alone [3] | place preference response after forced swimming ([4]; 1 mg/kg s.c. daily prior to forced swimming) | prevention of stress-induced reinstatement ([4]; 3 mg/kg s.c. daily immediately after forced swimming) | place preference response after forced swimming ([4]; 3 mg/kg s.c. daily prior to forced swimming) | prevention of stress-induced reinstatement of cocaine CPP ([4]; 1 or 3 mg/kg s.c. daily pretreatment) | effect on cocaine-induced reinstatement of place preference [5] | effect on antinociceptive effect of morphine (10 mg/kg, i.p.) (mu-opioid receptor) | effect on antinociceptive effect of SNC-80 (12.5 mg/kg, i.p.) (delta-opioid receptor)
1 | CC(=O)N[C@@H](Cc1ccccc1)C(=O)N[C@@H](Cc1ccccc1)C(=O)N[C@@H](Cc1ccccc1)C(=O)N[C@@H](CCCNC(=N)N)C(=O)N[C@@H](CC(C)C)C(=O)N[C@@H](CCCNC(=N)N)C(=O)N[C@@H](CCCNC(=N)N)C(=O)N[C@H](C)C(=O)N[C@@H](CCCNC(=N)N)C(=O)N1CCC[C@H]1C(=O)N[C@@H](CCCCN)C(N)=O [Arodyn, Ac[Phe^1,2,3,Arg^4,D-Ala^8]Dyn A-(1-11) amide] (Ac-FFFRLRR[dA]RPK-NH2) | 174 | 583 | can block stress-induced cocaine seeking behavior |  |  |  |  |  |  |  |  |  |  |  |  |  |  |  | 
2 | N=C(N)NCCC[C@@H]1NC(=O)[C@H](CCCNC(=N)N)NC(=O)[C@H](NC(=O)[C@H](Cc2ccccc2)NC(=O)CNC(=O)CNC(=O)[C@H](Cc2ccc(O)cc2)NCc2ccccc2)CC(=O)NC[C@@H](C(=O)N[C@@H](CCCNC(=N)N)C(=O)N2CCC[C@H]2C(=O)N[C@@H](CCCCN)C(N)=O)NC1=O [zyklophin, [N-benzylTyr^1,cyclo(D-Asp^5,Dap^8)]Dyn A-(1-11) amide] | 194 | > 330 |  | nanomolar antagonist potency | antagonized the antinociceptive effect of U50,488 administered centrally; also recorded: blocked the agonist activity of intracerebroventricularly administered U50,488 | 14 fold | reverse the effects of U50,488 in a dose-dependent manner; also recorded: significantly antagonized | significantly antagonized; also recorded: systemically active | ≤ 18 h | 8 h | lacked antinociceptive effect | 1.84 ± 0.41 s and 1.73 ± 0.15 s and 1.4 ± 0.08 s | but not 1 | did not prevent stress-induced reinstatement | did not differ significantly from preconditioning or extinction responses | dose-dependently prevented stress-induced reinstatement | had no effect on cocaine-induced reinstatement of place preference | not reduced | not reduced

— US20090111741A1, “METHOD FOR TREATING AND/OR […] SEEKING BEHAVIOR” (priority 2007, published 2009)
